Source: article PMC6521869
These are yes or no findings as the source states them, for the method shown. Binding seen in cells or lysates may run through a third protein. Binding can be weak; no strength is given.

Biological target: S-tagged ZIKV NS4B (Zika virus (ZIKV), 2015 epidemic in Brazil)
Test: pull-down

B1: EMC1 (protein, UniProt Q8N766 23-993)
chain: YEDQVGKFDWRQQYVGKVKFASLEFSPGSKKLVVATEKNVIAALNSRTGEILWRHVDKGTAEGAVDAMLLHGQDVITVSNGGRIMRSWETNIGGLNWEITLDSGSFQALGLVGLQESVRYIAVLKKTTLALHHLSSGHLKWVEHLPESDSIHYQMVYSYGSGVVWALGVVPFSHVNIVKFNVEDGEIVQQVRVSTPWLQHLSGACGVVDEAVLVCPDPSSRSLQTLALETEWELRQIPLQSLDLEFGSGFQPRVLPTQPNPVDASRAQFFLHLSPSHYALLQYHYGTLSLLKNFPQTALVSFATTGEKTVAAVMACRNEVQKSSSSEDGSMGSFSEKSSSKDSLACFNQTYTINLYLVETGRRLLDTTITFSLEQSGTRPERLYIQVFLKKDDSVGYRALVQTEDHLLLFLQQLAGKVVLWSREESLAEVVCLEMVDLPLTGAQAELEGEFGKKADGLLGMFLKRLSSQLILLQAWTSHLWKMFYDARKPRSQIKNEINIDTLARDEFNLQKMMVMVTASGKLFGIESSSGTILWKQYLPNVKPDSSFKLMVQRTTAHFPHPPQCTLLVKDKESGMSSLYVFNPIFGKWSQVAPPVLKRPILQSLLLPVMDQDYAKVLLLIDDEYKVTAFPATRNVLRQLHELAPSIFFYLVDAEQGRLCGYRLRKDLTTELSWELTIPPEVQRIVKVKGKRSSEHVHSQGRVMGDRSVLYKSLNPNLLAVVTESTDAHHERTFIGIFLIDGVTGRIIHSSVQKKAKGPVHIVHSENWVVYQYWNTKARRNEFTVLELYEGTEQYNATAFSSLDRPQLPQVLQQSYIFPSSISAMEATITERGITSRHLLIGLPSGAILSLPKALLDPRRPEIPTEQSREENLIPYSPDVQIHAERFINYNQTVSRMRGIYTAPSGLESTCLVVAYGLDIYQTRVYPSKQFDVLKDDYDYVLISSVLFGLVFATMITKRLAQVKLLNRAWR
binding: binds
